These are literature values, as cited in patent US7595395B2, “Gabaergic agents to treat memory deficits” (priority 2005, dated 2009).

Amino acid sequences for entries named in this document (tags omitted). Residues count along the entry.
UniProt P18507, 40-475: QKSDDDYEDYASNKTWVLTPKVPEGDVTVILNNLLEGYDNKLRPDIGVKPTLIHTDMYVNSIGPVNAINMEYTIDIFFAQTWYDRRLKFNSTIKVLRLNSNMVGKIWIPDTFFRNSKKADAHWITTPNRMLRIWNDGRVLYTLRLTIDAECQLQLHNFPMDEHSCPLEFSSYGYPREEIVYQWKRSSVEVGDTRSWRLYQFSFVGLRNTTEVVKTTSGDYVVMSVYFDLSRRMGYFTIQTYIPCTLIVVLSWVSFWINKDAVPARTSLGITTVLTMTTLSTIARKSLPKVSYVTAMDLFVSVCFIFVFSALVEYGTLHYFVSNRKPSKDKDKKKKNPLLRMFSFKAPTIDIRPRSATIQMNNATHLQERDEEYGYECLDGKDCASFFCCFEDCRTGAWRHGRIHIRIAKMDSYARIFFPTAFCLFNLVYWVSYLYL
UniProt P31644, 32-462: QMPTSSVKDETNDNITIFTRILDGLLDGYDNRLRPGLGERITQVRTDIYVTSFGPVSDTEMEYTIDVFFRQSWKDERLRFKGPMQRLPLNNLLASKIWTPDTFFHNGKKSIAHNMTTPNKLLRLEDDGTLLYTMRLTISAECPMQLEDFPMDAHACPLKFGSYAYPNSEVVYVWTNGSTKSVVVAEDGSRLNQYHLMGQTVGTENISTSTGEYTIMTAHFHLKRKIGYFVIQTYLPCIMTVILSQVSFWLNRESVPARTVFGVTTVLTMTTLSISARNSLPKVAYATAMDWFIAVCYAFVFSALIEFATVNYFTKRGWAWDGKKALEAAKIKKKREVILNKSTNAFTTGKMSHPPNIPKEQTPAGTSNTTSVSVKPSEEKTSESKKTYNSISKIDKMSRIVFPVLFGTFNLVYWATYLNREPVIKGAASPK

SMILES strings stand for the structures.

This data set has as its target GABAA/α5 receptors (Homo sapiens, UniProt P18507+P31644). The settings on record: read-out: Ki GABAA/α5; Huang et al. 2000, WO 03/082832A2; cited from earlier work.

As for `CN1C(=O)CN=C(c2ccccc2)c2cc(Cl)ccc21` [diazepam], the Ki was below 25 nM.
